Source: article PMC9908615

Chains of the proteins cited; added tags and fusions are not shown. Lines headed by an entry give the natural chain unless they say otherwise; changes in a name come on top.
UniProt Q7Z494: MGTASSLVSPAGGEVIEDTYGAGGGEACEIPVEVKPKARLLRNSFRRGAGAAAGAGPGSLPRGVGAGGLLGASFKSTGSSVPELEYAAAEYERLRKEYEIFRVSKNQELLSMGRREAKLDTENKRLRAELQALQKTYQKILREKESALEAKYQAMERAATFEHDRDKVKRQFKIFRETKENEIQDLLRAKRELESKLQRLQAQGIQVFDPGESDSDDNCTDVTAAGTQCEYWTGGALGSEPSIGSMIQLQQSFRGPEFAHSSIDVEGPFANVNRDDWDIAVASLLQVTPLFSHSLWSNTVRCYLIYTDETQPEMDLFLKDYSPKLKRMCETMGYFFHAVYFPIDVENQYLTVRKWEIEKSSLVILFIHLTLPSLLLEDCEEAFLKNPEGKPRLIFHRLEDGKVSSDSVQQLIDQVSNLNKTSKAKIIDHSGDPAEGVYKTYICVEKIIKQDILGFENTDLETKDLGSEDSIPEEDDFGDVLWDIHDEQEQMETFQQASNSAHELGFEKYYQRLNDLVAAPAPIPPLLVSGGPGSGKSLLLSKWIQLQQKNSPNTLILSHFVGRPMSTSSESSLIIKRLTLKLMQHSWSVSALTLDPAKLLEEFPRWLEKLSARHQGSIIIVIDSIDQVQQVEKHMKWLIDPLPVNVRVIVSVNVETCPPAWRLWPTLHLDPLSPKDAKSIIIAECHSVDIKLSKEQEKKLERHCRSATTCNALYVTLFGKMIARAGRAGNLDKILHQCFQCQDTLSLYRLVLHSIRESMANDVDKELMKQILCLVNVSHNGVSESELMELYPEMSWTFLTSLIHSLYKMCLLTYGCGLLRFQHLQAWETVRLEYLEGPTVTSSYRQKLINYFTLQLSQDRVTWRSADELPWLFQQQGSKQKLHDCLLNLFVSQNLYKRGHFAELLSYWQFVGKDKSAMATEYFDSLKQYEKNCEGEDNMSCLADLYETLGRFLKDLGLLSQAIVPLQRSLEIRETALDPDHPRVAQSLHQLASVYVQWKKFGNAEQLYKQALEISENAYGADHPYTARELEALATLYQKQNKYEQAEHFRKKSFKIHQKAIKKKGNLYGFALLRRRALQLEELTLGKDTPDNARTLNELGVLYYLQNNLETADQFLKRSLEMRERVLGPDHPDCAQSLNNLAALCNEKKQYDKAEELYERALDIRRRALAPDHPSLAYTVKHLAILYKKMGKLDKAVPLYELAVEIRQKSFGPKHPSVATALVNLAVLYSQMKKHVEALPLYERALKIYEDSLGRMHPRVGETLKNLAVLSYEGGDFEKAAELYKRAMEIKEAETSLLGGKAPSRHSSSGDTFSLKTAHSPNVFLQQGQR

biological target: NPHP3-BioID2-RAD23B (aa185-409) (human) (UniProt Q7Z494); assay: proximity labelling; NPHP3-BioID2-RAD23B (aa185-409) stably expressed in IMCD3 Flp-In cells, starvation medium 48 h, 10 uM biotin for the last 24 h; RIPA lysis, StrepTactin Superflow beads 3 h at 4°C, on-bead trypsin digestion, label-free MS; enrichment against the NPHP3-BioID2 control line; 6 replicates per cell line

binding	Binder
binds	CEP131 (protein, UniProt Q62036 1-1060) MKGSRTITATPEGSPEAVDLSLIGLPPPMSQRPGSASATRSIFRSMSVATGSEPRKKALEATGPGGPRAINNLRRSNSTTQVNQSWTGSPRPAEPTDFLMLFEGSTSGRRRVASLSKASSEKEATWNVLDEQPRGLALPASAQSPSTLDSALGPRRKECPLAPSFTANNRSNKGAVGNCVTTMVHNHYASSKMVSPPKSSNQTAPSLNNIVKAAAREGGEGSDLGKPRKNLSSASQSARGTTGLLRRREVTEEEAERFIHQVNQAAVTIQRWYRCQVQRRRAGAAALEHLLASKREGQRQRLGGGNLLELHRQEEAARKKAREEKARQARQAAIQVLQQKRAQKASEAEHRRPKDRPETRAPEQPRPMQEPGCVTHPKANNAGASIYPTGPADPCPPASESSPEQWQSPEDKPQDIHSQGEARQDLAVSGSSRGKARARATLDDLLDTLKLLEEEPEPLPHPKAYHKDRYAWTDEEEDANSLTADNLEKFGKLSAAPGPPDDGTLLSEAKLQSIMTFLDEMEKSGQERPAPWRESLVLEAGSGSEGSTSVMRLKLELEEKKQAMALLQRALAQQRDLTVRRVKETEKELTRQLRQQKEQYEATIQRHLSFIDQLIEDKKVLSEKCEAVVAELKHGDQRCRERVAQMQEQHELEIKKLKELMSATEKIRREKWINEKTKKIKEITVRGLEPEIQKLIAKHKQEVRRLRGLHEAELQQREEQAAQRHLRQAEELRQHLDREREVLGQQERERAQQRFEQHLEQEQRALEQQRRRLYNEVAEEKERLGQQAARQRAELEELRQQLEESSAALTRALRAEFERSREEQERRHQMELKALKDQLEAERQAWVASCAKKEEAWLLTRERELKEEIRKGRDQEIELVIHRLEADMTLAKEESERAAESRVKRVRDKYETELSELEQSERKLQERCSELKGRLGEAEGEKERLQSLVRQKEKELEDLRAVNTQMCSERASLAQVVRQEFAEQLAASQEETQRVKVELAELQARQQVELDEVHRRVKTALARKEAAVNSLRKQHEAAVKRADHLEELLEQHKGSSLSSK
binds	WRNIP1 (protein, UniProt Q91XU0 1-660) MEVSGPEDDPFLSQLHQVQCPVCQQMMPAAHINSHLDRCLLLHPAGHAEPAAGSHRAGERAKGPSPPGAKRRRLSESSALKQPATPTAAESSEGEGEEGDDGGETESRESYDAPPTPSGARLIPDFPVARSSSPARKGMGKRPAAAAAAGSASPRSWDEAEAQEEEEAGVDGDGDADVDGEDDPGHWDADAADASFGVSAGRAHPRALAAEEIRQMLEGKPLADKMRPDTLQDYIGQSRAVGQETLLRSLLEANEIPSLILWGPPGCGKTTLAHIIANNSKKHSIRFVTLSATNAKTNDVRDVIKQAQNEKSFFKRKTILFIDEIHRFNKSQQDTFLPHVECGTITLIGATTENPSFQVNAALLSRCRVIVLEKLPVEAMVTILMRAINSLGIHVLDSSRPTDPLSHSSNCSSEPSVFIEDKAVDTLAYLSDGDARTGLNGLQLAVLARLSSRKVFCKKSGQTYSPSRVLITENDVKEGLQRSHILYDRAGEEHYNCISALHKAMRGSDQNASLYWLARMLEGGEDPLYVARRLVRFASEDIGLADPSALAQAVAAYQGCHFIGMPECEVLLAQCVVYFARAPKSIEVYSAYNNVKACLRSHQGPLPPVPLHLRNAPTRLMKDLGYGKGYKYNPMYSEPVDQDYLPEELRGVDFFKQRRC
binds	CYLD (enzyme, UniProt Q80TQ2 1-952) MSSGLWSQEKVTSPYWEERIFYLLLQECSVTDKQTQKLLKVPKGSIGQYIQDRSVGHSRVPSTKGKKNQIGLKILEQPHAVLFVDEKDVVEINEKFTELLLAITNCEERLSLFRNRLRLSKGLQVDVGSPVKVQLRSGEEKFPGVVRFRGPLLAERTVSGIFFGVELLEEGRGQGFTDGVYQGKQLFQCDEDCGVFVALDKLELIEDDDNGLESDFAGPGDTMQVEPPPLEINSRVSLKVGESTESGTVIFCDVLPGKESLGYFVGVDMDNPIGNWDGRFDGVQLCSFASVESTILLHINDIIPDSVTQERRPPKLAFMSRGVGDKGSSSHNKPKVTGSTSDPGSRNRSELFYTLNGSSVDSQQSKSKNPWYIDEVAEDPAKSLTEMSSDFGHSSPPPQPPSMNSLSSENRFHSLPFSLTKMPNTNGSMAHSPLSLSVQSVMGELNSTPVQESPPLPISSGNAHGLEVGSLAEVKENPPFYGVIRWIGQPPGLSDVLAGLELEDECAGCTDGTFRGTRYFTCALKKALFVKLKSCRPDSRFASLQPVSNQIERCNSLAFGGYLSEVVEENTPPKMEKEGLEIMIGKKKGIQGHYNSCYLDSTLFCLFAFSSALDTVLLRPKEKNDIEYYSETQELLRTEIVNPLRIYGYVCATKIMKLRKILEKVEAASGFTSEEKDPEEFLNILFHDILRVEPLLKIRSAGQKVQDCNFYQIFMEKNEKVGVPTIQQLLEWSFINSNLKFAEAPSCLIIQMPRFGKDFKLFKKIFPSLELNITDLLEDTPRQCRICGGLAMYECRECYDDPDISAGKIKQFCKTCSTQVHLHPRRLNHSYHPVSLPKDLPDWDWRHGCIPCQKMELFAVLCIETSHYVAFVKYGKDDSAWLFFDSMADRDGGQNGFNIPQVTPCPEVGEYLKMSLEDLHSLDSRRIQGCARRLLCDAYMCMYQSPTMSLYK
binds	TSG101 (protein, UniProt Q61187 1-391) MAVSESQLKKMMSKYKYRDLTVRQTVNVIAMYKDLKPVLDSYVFNDGSSRELVNLTGTIPVRYRGNIYNIPICLWLLDTYPYNPPICFVKPTSSMTIKTGKHVDANGKIYLPYLHDWKHPRSELLELIQIMIVIFGEEPPVFSRPTVSASYPPYTATGPPNTSYMPGMPSGISAYPSGYPPNPSGYPGCPYPPAGPYPATTSSQYPSQPPVTTVGPSRDGTISEDTIRASLISAVSDKLRWRMKEEMDGAQAELNALKRTEEDLKKGHQKLEEMVTRLDQEVAEVDKNIELLKKKDEELSSALEKMENQSENNDIDEVIIPTAPLYKQILNLYAEENAIEDTIFYLGEALRRGVIDLDVFLKHVRLLSRKQFQLRALMQKARKTAGLSDLY
binds	RABEP2 (protein, UniProt Q91WG2 1-554) MAAAPATLALDPQPQEKQKDASESSELSRLRAELAGALAEMETMKAVAEVSESTKAEAVAAVQRQCQEEVASLQAILKDSISSYETQIAALKQERQQQQQDFEEKDRELGHLKQLLARAHPLDSLEKQMEKAHEDSEKLREIVLPMEQEITELKGKLQRAEELIQEIQRRPRQPASLHGSTELLPLSRNPSPPLEPLEEPSGDAGPAAEAFAHNCDDSASISSFSLGGAAGSASLRGPQGLSPEQEETASLVSTGTLVPEGIFLPPPGYQLVPDSQWEQLQVEGRQLQKELESVSRERDELQEGLRRSNEDCAKQMQVLLAQVQNSEQLLRTLQGTVSQAQERVQLQMAELATSHKCLSQEVKRLNEENQGLRAEQLPSSALQGSEQREDQDEALPSSIQELHLLVQNTRQQARARQQAQEHEAERLRIEIVKLREALDEETAAKASLERQLRVQREETDVLEASLCSLRIETERVQQEQRKAQLTDLLSEQRAKTLRLQAELETSEQVQRDFVRLSQALQVRLERIRQAETLQQVRSILDEAPLRDIRDIKDS

These are yes or no findings as the source states them, for the method shown. Binding seen in cells or lysates may run through a third protein. Here binding means that the protein was enriched with, or labelled near, the bait; the list need not be complete.
